In all, about 59,000 compounds went through this assay and about 35 (0.06%) were called active. Inconclusive results, whose numbers are uncertain, are shown with a selection of clear calls. Rule as the data show it: active = max dye-equivalent concentration above about 10 nM; inconclusive = between about 1.1 nM and that limit; inactive = weaker than that.
Experiment: qHTS Assay for Spectroscopic Profiling in Texas Red Spectral Region
Details: Compound fluorescence, Texas Red channel, 547/618 nm; hits give high values
Outline: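 Spectral interference profiling: each compound concentration's relative fluorescence, read with a 547 nm excitation and 618 nm emission filter pair, was normalized to a per-plate Texas Red standard curve.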

SMILES	max dye-equivalent concentration
Cc1cc(C(F)F)n2nc(C(=O)Nc3cc(C)on3)nc2n1	inconclusive: 1.1 nM
N#Cc1ccc(COC(=O)CSc2nnc(C3CCCCC3)n2N)cc1	inconclusive: 1.3 nM
O=C(O)CSc1nnc(-c2ccccc2O)n1Cc1ccccc1	inconclusive: 1.1 nM
O=C(Nc1ccc(Cl)c(Cl)c1)N1CCSC1c1ccco1 (stereo unspecified)	inconclusive: 1.4 nM
COC(=O)c1sc2nc(CN3CCOCC3)nc(N3CCOCC3)c2c1C	inconclusive: 1.2 nM
CCOC(=O)c1sc(=S)n(CC)c1N	inconclusive: 1.5 nM
Cc1cccc(OCc2nnc(SCc3nc4ccccc4c(=O)[nH]3)o2)c1	inconclusive: 1.1 nM
CS(=O)(=O)N(CC(O)Cn1c2ccccc2c2ccccc21)c1ccccc1 (stereo unspecified)	inconclusive: 1.5 nM
CCC(C)NS(=O)(=O)c1ccc(OCC(=O)NCc2ccc3c(c2)OCO3)cc1 (stereo unspecified)	inconclusive: 2.2 nM
N#C/C(=C\C1CC=CCC1)c1nc2ccccc2[nH]1 (stereo unspecified)	inconclusive: 1.4 nM
CCOc1ccccc1C(=O)Nc1ccc(-c2nnc(-c3ccc(C)cc3)o2)cc1	inconclusive: 1.2 nM
CCCCn1c(=O)c2c(c3ccccc31)OCC(=O)N2	inconclusive: 1.1 nM
O=C(NCc1ccccc1)N1CCC(n2cnc3cc(F)ccc32)CC1	inconclusive: 1.2 nM
Cc1ccnc(N2CCC(C(=O)NC3CCCCCC3)CC2)n1	inconclusive: 1.7 nM
C=CCNc1ncnc2ccccc12	inconclusive: 1.5 nM
Cc1ccc(NCc2nc3ccccc3n2C)cc1	inconclusive: 1.4 nM
O=C(O)CC(c1ccccc1)n1cccc1 (stereo unspecified)	inconclusive: 1.4 nM
Cc1cc(C)c2c(N)c(C(=O)N3CCN(c4ncccn4)CC3)sc2n1	inconclusive: 1.6 nM
CC(C)N1C(=O)C2ON(c3ccccc3)C(c3cccs3)C2C1=O (stereo unspecified)	inconclusive: 1.7 nM
O=c1[nH]cnc2[nH]ncc12	inconclusive: 1.5 nM
O=C(OCC(=O)N1CCN(c2ccccc2)CC1)C1=COCCO1	inconclusive: 1.8 nM
O=c1c(-c2ccccc2)n[nH]c2ccccc12	inactive

SMILES	max dye-equivalent concentration
COc1ccc(C(=O)NC(=O)Nc2cc(C)ccn2)cc1	inconclusive: 1.1 nM
Cc1csc(NC(=O)CCS(=O)(=O)c2ccc(Br)cc2)n1	inactive
CN(C)C(=O)Oc1cccc([N+](C)(C)C)c1	inconclusive: 1.2 nM
COc1ccc(C2C(C(C)=O)=C(C)N=c3s/c(=C/c4ccc5c(c4)OCO5)c(=O)n32)cc1 (stereo unspecified)	inactive
O=S(=O)(NCCSc1ccccc1)c1ccc(F)cc1	inconclusive: 2 nM
O=C(NCCN1CCCCCC1)C1CCN(S(=O)(=O)N2CCOCC2)CC1	inconclusive: 1.2 nM
COc1ccc(CCNC(=O)Cn2c(=O)n(Cc3ccco3)c(=O)c3ccc(Cl)cc32)cc1OC	inconclusive: 1.2 nM
O=C(c1nc2nc(-c3ccc(Cl)cc3)cc(C(F)(F)F)n2n1)N1CCOCC1	inconclusive: 1.4 nM
c1ccc(-c2oc3ncnc(N4CCOCC4)c3c2-c2ccccc2)cc1	inactive
COc1ccc(CCNC(=O)C2CCCCC2C(=O)O)cc1OC (stereo unspecified)	inconclusive: 1.6 nM
COC(=O)CSc1nnc(-c2ccc(OC)cc2OC)o1	inconclusive: 1.5 nM
c1ccc(-c2nnc(CSc3nc4ccccc4[nH]3)o2)cc1	inconclusive: 1.5 nM
CCN(CC)c1ccc(NC(=O)CN2CCN(CC(=O)Nc3ccc(F)cc3)CC2)cc1	inconclusive: 1.2 nM
Cc1c(Cl)cccc1N1C(=O)CC(N(O)c2ccccc2)C1=O (stereo unspecified)	inconclusive: 1.4 nM
COc1ccc(S(=O)(=O)N2Cc3ccccc3CC2C(=O)Nc2nccs2)cc1OC (stereo unspecified)	inconclusive: 1.2 nM
CC(C)CC1(C)NC(=O)N(CCN2C(=O)c3ccccc3C2=O)C1=O (stereo unspecified)	inconclusive: 2.5 nM
CC1(C)NC(=O)N(CN2C(=O)NC(C)(C)C2=O)C1=O	inconclusive: 1.2 nM
Cc1cccc(OCc2nnc(SCn3nnc4ccccc4c3=O)o2)c1	inconclusive: 1.6 nM
COCCn1c(=O)c(C)nc2cnc(N(C)C)nc21	inactive
CC1(c2ccc(Cl)cc2)NC(=O)N(CC(=O)NC(=O)NCc2ccco2)C1=O (stereo unspecified)	inconclusive: 1.7 nM
CCCNC(=O)Cc1ccsc1	inconclusive: 1.5 nM
OCc1nn2c(c1Br)NC(c1ccccc1)CC2C(F)(F)F (stereo unspecified)	inconclusive: 1.1 nM

SMILES	max dye-equivalent concentration
COc1nnc(-c2ccc(N3CCCCC3)c(N)c2)c2ccccc12	inconclusive: 2.4 nM
CCCOc1ccc(/C(O)=C2/C(=O)C(=O)N(CCCOC)C2c2ccncc2)cc1 (stereo unspecified)	inconclusive: 1.5 nM
C=CCN1C(=O)CC(C(=O)NC)SC1=Nc1ccc(C(=O)OCC)cc1 (stereo unspecified)	inconclusive: 1.1 nM
COc1ccc(CC(NC(C)=O)C(=O)N2CCN(C(=O)N(C(C)C)C(C)C)CC2)cc1 (stereo unspecified)	inconclusive: 1.1 nM
CN(N=O)c1ccc(/C=C\c2ccnc3ccccc23)cc1	inconclusive: 1.2 nM
O=C(O)CNC(=O)[C@@H](CS)Cc1ccccc1	inactive
Cc1nn(-c2ccccc2)c(C)c1NC(=O)c1ccc(S(=O)(=O)N2CCCC2)cc1	inconclusive: 1.4 nM
CC(C)COC(=O)Nc1ccccc1C(=O)N1CCOCC1	inconclusive: 1.2 nM
Oc1ccc(N2CCN(C(c3cccnc3)c3nnnn3Cc3ccccc3)CC2)cc1 (stereo unspecified)	inconclusive: 1.4 nM
COC(=O)c1ccccc1NC(=O)CN(CCc1ccccc1)S(C)(=O)=O	inconclusive: 1.6 nM
O=C1OC(NC(=O)c2ccccc2)C(n2cc(CO)nn2)=C1Cl (stereo unspecified)	inconclusive: 1.4 nM
CC1=CC(C)(C)N2C(=O)C3(C(C#N)=C(N)Oc4cc(C)oc(=O)c43)c3cccc1c32 (stereo unspecified)	inconclusive: 1.6 nM
Oc1ccc2c(c1)oc1cc(O)ccc12	inconclusive: 1.5 nM
Cc1nc2c(C(=O)NCCC3=CCCCC3)c[nH]n2c(=O)c1Cl	inconclusive: 1.5 nM
O=C(Nc1ccc(Cl)cc1)N1CCSCC1	inconclusive: 1.6 nM
CCn1c(C(O)c2ccc3c(c2)OCO3)nc2ccccc21 (stereo unspecified)	inconclusive: 1.1 nM
Cc1ccc(S(=O)(=O)N2CCC(C(=O)N[C@@H](C)C(=O)NC3CCCCC3)CC2)cc1	inconclusive: 1.4 nM
COc1ccc(N2CCCn3c2nc2c3c(=O)n(CCc3ccccc3)c(=O)n2C)cc1	inconclusive: 1.2 nM
CCOC(=O)C1CCN(c2ncnc3c2oc2ccccc23)CC1	inconclusive: 1.1 nM
O=C(NC1CCCC1)c1cnn2c(C(F)(F)F)cc(-c3ccc4c(c3)OCO4)nc12	inactive
COC(=O)c1ccc2c(=O)[nH]c(CN3c4ccccc4CC3C)nc2c1 (stereo unspecified)	inconclusive: 1.2 nM
Cc1ccccc1-c1nnc(SCc2ccccc2)o1	inconclusive: 1.5 nM

SMILES	max dye-equivalent concentration
Cc1cc(=O)n2nc(N3CCCC(C(=O)NCCCN4CCc5ccccc5C4)C3)sc2n1 (stereo unspecified)	inconclusive: 1.1 nM
O=C(CSc1nc2ccccc2c(=O)n1Cc1ccco1)c1ccccc1	inconclusive: 2 nM
CC(C)NC(=O)COC(=O)c1ccc(O)cc1	inconclusive: 2.7 nM
N#CC(c1nc2ccccc2nc1N1CCCCC1)S(=O)(=O)c1ccc(Cl)cc1 (stereo unspecified)	inconclusive: 1.2 nM
CN1CCN(c2ncc3nc(-c4cccc(C#N)c4)c(=O)n(Cc4ccc(F)cc4)c3n2)CC1	inactive
CCC(CC)c1nnc(NS(=O)(=O)Cc2ccccc2)s1	inconclusive: 2 nM
Cc1noc(C)c1COC(=O)CCOc1ccccc1	inconclusive: 1.4 nM
CCOC(=O)Nc1ccc(NCc2ccc(F)cc2)nc1N	inactive
CCC(C)(C(=O)NC1CCCCC1)N(C)C(=O)c1ccccn1 (stereo unspecified)	inconclusive: 1.2 nM
Cn1c(Cc2ccccc2)nnc1SCC(=O)Nc1ccc2c(c1)OCCO2	inconclusive: 1.2 nM
COc1cccc(Nc2ncc3nc(-c4cn(C)c5ccccc45)c(=O)n(CCC#N)c3n2)c1	inactive
c1csc(-c2ccc3ccccc3n2)c1	inconclusive: 1.7 nM
O=S(=O)(Nc1ccc2nc(-c3ccc(Br)o3)[nH]c2c1)c1ccccc1	inconclusive: 1.2 nM
CO[C@H]1[C@H](O[C@H]2O[C@@H](C)[C@@H](O[C@@H]3C[C@](C)(O)[C@H](O)[C@H](C)O3)[C@@H](N(C)C)[C@@H]2O)[C@@H](CC=O)C[C@@H](C)[C@@H](O[C@H]2CC[C@H](N(C)C)[C@H](C)O2)/C=C\C=C/C[C@@H](C)OC(=O)C[C@H]1O	inconclusive: 1.1 nM
Cn1c(SCc2ccon2)nc2ccccc2c1=O	inconclusive: 1.5 nM
Cc1ccn(CC(=O)O)c(=O)c1	inconclusive: 1.2 nM
O=C(O)CCC(=O)N(Cc1ccco1)c1nc(-c2ccccc2)cs1	inactive
COc1ccc(NC(=O)CN(C)S(=O)(=O)c2ccc3c(c2)OCCO3)c2ncccc12	inconclusive: 1.4 nM
CCOC(=O)COn1c(=O)c(-c2cccs2)[n+]([O-])c2ccccc21	inactive
COc1cccc(C(=O)Nc2c3c(nn2-c2cccc(C)c2C)CS(=O)(=O)C3)c1OC	inconclusive: 1.3 nM

Reformatted as comma-separated lines: entries from further up
SMILES,max dye-equivalent concentration
COc1ccc(S(=O)(=O)N2Cc3ccccc3CC2C(=O)Nc2nccs2)cc1OC (stereo unspecified),inconclusive: 1.2 nM
CC(C)CC1(C)NC(=O)N(CCN2C(=O)c3ccccc3C2=O)C1=O (stereo unspecified),inconclusive: 2.5 nM
CC1(C)NC(=O)N(CN2C(=O)NC(C)(C)C2=O)C1=O,inconclusive: 1.2 nM
Cc1cccc(OCc2nnc(SCn3nnc4ccccc4c3=O)o2)c1,inconclusive: 1.6 nM
COCCn1c(=O)c(C)nc2cnc(N(C)C)nc21,inactive
CC1(c2ccc(Cl)cc2)NC(=O)N(CC(=O)NC(=O)NCc2ccco2)C1=O (stereo unspecified),inconclusive: 1.7 nM
CCCNC(=O)Cc1ccsc1,inconclusive: 1.5 nM
OCc1nn2c(c1Br)NC(c1ccccc1)CC2C(F)(F)F (stereo unspecified),inconclusive: 1.1 nM
COc1nnc(-c2ccc(N3CCCCC3)c(N)c2)c2ccccc12,inconclusive: 2.4 nM
CCCOc1ccc(/C(O)=C2/C(=O)C(=O)N(CCCOC)C2c2ccncc2)cc1 (stereo unspecified),inconclusive: 1.5 nM
C=CCN1C(=O)CC(C(=O)NC)SC1=Nc1ccc(C(=O)OCC)cc1 (stereo unspecified),inconclusive: 1.1 nM
COc1ccc(CC(NC(C)=O)C(=O)N2CCN(C(=O)N(C(C)C)C(C)C)CC2)cc1 (stereo unspecified),inconclusive: 1.1 nM
CN(N=O)c1ccc(/C=C\c2ccnc3ccccc23)cc1,inconclusive: 1.2 nM
O=C(O)CNC(=O)[C@@H](CS)Cc1ccccc1,inactive
Cc1nn(-c2ccccc2)c(C)c1NC(=O)c1ccc(S(=O)(=O)N2CCCC2)cc1,inconclusive: 1.4 nM
CC(C)COC(=O)Nc1ccccc1C(=O)N1CCOCC1,inconclusive: 1.2 nM
Oc1ccc(N2CCN(C(c3cccnc3)c3nnnn3Cc3ccccc3)CC2)cc1 (stereo unspecified),inconclusive: 1.4 nM
COC(=O)c1ccccc1NC(=O)CN(CCc1ccccc1)S(C)(=O)=O,inconclusive: 1.6 nM
O=C1OC(NC(=O)c2ccccc2)C(n2cc(CO)nn2)=C1Cl (stereo unspecified),inconclusive: 1.4 nM
CC1=CC(C)(C)N2C(=O)C3(C(C#N)=C(N)Oc4cc(C)oc(=O)c43)c3cccc1c32 (stereo unspecified),inconclusive: 1.6 nM
Oc1ccc2c(c1)oc1cc(O)ccc12,inconclusive: 1.5 nM
Cc1nc2c(C(=O)NCCC3=CCCCC3)c[nH]n2c(=O)c1Cl,inconclusive: 1.5 nM
O=C(Nc1ccc(Cl)cc1)N1CCSCC1,inconclusive: 1.6 nM
CCn1c(C(O)c2ccc3c(c2)OCO3)nc2ccccc21 (stereo unspecified),inconclusive: 1.1 nM
Cc1ccc(S(=O)(=O)N2CCC(C(=O)N[C@@H](C)C(=O)NC3CCCCC3)CC2)cc1,inconclusive: 1.4 nM
COc1ccc(N2CCCn3c2nc2c3c(=O)n(CCc3ccccc3)c(=O)n2C)cc1,inconclusive: 1.2 nM
